Assay results from the supplement of paper PMC12819154, “High-throughput peptide-centric local stability assay extends protein–ligand identification to membrane proteins, tissues and bacteria” (Nature Structural & Molecular Biology, 2025).
Some of the results follow. Most entries show no effect beyond the scatter of the controls.

Chains of the proteins cited; added tags and fusions are not shown. Lines headed by an entry give the natural chain unless they say otherwise; changes in a name come on top.
UniProt Q4JIM5, whole entry: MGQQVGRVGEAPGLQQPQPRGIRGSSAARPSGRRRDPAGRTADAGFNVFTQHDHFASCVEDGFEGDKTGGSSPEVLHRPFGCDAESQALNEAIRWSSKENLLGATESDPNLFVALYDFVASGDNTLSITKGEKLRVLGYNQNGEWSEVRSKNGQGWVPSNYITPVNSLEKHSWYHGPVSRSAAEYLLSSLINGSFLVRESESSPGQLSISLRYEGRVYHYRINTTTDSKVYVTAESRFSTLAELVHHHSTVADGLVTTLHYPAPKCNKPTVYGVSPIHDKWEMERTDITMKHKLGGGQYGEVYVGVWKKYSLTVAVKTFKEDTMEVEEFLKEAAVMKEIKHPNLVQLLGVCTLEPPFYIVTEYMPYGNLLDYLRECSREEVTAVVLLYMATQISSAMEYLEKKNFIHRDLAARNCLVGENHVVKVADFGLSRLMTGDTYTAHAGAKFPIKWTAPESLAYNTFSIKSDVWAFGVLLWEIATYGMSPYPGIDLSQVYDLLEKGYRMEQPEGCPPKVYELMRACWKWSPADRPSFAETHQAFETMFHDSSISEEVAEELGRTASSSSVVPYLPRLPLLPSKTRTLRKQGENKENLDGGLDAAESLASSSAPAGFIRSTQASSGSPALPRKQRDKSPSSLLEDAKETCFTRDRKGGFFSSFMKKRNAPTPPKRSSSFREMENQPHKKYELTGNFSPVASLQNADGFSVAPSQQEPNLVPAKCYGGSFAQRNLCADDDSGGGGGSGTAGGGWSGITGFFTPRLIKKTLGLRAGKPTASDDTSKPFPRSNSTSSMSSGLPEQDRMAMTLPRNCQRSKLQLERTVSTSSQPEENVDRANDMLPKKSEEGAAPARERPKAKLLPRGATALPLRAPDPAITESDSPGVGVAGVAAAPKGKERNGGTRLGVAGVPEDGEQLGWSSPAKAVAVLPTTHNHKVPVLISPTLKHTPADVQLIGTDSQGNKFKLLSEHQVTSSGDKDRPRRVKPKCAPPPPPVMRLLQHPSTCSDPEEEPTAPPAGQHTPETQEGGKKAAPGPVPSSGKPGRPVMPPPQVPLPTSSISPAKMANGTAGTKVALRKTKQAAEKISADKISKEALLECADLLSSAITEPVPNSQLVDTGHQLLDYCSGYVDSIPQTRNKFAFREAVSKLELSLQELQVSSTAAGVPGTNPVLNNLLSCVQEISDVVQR
UniProt Q571I9: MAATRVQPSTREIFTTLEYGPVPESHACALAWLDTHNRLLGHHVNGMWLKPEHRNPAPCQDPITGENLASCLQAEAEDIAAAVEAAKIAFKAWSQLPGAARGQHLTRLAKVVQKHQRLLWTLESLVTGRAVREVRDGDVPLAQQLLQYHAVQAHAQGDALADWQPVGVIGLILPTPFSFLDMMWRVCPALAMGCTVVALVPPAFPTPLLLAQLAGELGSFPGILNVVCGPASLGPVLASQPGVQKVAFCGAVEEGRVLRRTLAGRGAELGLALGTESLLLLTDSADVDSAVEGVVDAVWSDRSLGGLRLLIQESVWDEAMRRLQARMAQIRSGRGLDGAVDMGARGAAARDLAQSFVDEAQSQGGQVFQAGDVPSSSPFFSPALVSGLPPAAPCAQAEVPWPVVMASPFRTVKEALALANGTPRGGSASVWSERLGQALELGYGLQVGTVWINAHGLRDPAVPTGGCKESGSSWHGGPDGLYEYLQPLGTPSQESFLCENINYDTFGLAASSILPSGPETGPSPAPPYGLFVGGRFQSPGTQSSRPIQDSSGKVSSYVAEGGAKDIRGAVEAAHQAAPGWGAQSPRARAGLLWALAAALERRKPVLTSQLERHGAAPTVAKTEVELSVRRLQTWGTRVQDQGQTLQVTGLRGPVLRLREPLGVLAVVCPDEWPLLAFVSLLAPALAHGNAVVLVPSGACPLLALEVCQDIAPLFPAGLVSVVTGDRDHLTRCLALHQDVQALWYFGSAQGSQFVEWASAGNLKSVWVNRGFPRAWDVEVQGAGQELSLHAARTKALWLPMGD
UniProt Q5DTV4: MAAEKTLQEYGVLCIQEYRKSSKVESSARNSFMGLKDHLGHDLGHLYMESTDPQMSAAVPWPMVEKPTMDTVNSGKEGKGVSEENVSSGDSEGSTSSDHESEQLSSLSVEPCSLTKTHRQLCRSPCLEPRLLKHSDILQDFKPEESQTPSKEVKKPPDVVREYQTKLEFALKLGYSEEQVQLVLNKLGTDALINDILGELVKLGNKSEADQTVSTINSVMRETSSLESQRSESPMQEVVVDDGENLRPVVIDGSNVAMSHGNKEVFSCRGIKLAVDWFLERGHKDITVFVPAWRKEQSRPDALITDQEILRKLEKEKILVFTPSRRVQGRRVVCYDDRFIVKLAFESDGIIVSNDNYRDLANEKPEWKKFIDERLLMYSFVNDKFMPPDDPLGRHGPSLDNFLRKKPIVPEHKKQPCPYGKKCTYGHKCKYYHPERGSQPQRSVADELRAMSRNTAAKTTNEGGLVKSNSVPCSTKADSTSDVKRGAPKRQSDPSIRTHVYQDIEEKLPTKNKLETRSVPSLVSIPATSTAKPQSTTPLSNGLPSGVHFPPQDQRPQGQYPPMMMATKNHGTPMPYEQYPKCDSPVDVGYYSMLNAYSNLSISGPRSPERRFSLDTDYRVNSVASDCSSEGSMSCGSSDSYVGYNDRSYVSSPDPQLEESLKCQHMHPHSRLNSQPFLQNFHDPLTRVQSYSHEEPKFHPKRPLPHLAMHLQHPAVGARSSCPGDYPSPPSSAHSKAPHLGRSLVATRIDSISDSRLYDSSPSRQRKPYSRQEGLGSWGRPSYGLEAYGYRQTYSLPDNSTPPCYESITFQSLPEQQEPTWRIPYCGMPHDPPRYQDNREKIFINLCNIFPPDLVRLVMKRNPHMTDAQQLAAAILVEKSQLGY
UniProt Q3UHD3: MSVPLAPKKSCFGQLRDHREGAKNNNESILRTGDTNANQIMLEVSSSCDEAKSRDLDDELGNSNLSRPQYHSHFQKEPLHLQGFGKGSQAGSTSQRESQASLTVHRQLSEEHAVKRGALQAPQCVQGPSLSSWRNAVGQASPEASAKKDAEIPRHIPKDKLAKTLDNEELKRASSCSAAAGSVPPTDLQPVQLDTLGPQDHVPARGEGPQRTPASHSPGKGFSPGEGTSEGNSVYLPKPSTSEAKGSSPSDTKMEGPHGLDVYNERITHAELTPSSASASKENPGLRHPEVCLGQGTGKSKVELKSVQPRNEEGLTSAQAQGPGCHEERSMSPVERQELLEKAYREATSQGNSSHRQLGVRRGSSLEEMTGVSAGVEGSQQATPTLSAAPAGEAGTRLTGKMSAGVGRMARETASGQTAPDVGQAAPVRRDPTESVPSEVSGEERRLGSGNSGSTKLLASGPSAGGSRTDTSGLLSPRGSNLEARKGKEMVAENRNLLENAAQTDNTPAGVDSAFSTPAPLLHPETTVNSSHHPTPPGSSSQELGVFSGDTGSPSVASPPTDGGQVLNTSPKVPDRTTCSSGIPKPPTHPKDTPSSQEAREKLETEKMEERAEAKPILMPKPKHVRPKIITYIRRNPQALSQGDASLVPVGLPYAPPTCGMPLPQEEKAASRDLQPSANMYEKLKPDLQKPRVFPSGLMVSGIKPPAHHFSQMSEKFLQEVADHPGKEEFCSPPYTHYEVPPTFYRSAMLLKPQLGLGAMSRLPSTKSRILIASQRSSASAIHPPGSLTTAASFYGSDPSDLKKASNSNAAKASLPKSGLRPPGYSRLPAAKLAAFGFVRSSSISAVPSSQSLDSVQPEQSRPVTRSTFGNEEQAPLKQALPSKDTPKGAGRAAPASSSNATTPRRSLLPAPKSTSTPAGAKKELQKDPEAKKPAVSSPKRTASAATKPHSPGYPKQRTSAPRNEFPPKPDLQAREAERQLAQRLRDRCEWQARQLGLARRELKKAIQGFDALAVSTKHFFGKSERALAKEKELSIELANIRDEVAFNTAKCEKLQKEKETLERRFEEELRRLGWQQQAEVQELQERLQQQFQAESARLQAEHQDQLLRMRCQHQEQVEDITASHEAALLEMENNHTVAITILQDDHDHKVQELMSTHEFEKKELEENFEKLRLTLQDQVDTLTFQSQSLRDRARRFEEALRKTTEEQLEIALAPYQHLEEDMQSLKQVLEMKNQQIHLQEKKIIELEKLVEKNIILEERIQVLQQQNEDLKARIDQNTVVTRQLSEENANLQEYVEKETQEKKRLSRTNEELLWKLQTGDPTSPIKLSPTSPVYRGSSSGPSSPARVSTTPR
UniProt Q3UFK8: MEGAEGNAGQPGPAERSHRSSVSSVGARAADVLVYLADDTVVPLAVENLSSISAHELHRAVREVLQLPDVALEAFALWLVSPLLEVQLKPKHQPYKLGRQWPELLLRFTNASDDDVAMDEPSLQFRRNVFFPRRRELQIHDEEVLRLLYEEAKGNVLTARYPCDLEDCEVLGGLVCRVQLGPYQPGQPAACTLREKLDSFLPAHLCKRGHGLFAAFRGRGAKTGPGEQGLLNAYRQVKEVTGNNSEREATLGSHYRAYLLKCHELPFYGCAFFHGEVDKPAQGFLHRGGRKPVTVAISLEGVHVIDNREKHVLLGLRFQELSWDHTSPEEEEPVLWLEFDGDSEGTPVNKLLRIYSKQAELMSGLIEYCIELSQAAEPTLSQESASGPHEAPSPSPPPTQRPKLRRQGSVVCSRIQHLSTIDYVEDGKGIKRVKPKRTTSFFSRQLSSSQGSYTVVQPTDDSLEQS
UniProt Q4VAA7: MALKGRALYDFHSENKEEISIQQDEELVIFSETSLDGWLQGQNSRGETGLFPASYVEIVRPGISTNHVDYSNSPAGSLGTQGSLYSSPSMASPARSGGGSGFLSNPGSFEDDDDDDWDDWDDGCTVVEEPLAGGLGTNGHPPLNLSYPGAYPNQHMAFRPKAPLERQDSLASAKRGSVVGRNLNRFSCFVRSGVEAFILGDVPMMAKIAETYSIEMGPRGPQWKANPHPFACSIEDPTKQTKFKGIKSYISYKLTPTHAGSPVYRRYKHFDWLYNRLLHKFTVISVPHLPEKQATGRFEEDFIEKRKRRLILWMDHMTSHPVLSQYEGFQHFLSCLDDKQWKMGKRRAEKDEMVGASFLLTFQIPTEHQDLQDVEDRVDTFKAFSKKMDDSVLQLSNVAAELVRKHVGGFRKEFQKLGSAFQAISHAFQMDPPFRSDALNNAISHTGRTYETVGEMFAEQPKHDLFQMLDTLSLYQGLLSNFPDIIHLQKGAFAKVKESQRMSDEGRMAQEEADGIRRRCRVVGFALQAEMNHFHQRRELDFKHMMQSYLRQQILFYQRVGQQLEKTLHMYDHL
UniProt Q3UQU0, whole entry: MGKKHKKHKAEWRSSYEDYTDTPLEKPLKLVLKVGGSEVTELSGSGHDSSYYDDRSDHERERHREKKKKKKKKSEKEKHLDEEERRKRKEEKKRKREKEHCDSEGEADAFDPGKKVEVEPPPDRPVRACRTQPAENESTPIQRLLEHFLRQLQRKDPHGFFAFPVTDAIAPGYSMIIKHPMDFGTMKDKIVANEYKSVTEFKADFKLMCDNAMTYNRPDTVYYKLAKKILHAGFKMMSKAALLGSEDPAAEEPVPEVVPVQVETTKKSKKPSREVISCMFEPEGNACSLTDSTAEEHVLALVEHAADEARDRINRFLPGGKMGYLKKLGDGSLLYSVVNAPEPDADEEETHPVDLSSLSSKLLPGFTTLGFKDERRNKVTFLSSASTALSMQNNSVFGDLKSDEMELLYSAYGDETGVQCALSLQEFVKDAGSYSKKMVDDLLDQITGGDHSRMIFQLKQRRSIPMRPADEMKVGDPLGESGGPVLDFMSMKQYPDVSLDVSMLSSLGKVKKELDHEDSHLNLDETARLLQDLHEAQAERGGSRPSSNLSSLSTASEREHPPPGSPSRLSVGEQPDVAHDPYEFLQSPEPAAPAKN
UniProt Q3UJK4: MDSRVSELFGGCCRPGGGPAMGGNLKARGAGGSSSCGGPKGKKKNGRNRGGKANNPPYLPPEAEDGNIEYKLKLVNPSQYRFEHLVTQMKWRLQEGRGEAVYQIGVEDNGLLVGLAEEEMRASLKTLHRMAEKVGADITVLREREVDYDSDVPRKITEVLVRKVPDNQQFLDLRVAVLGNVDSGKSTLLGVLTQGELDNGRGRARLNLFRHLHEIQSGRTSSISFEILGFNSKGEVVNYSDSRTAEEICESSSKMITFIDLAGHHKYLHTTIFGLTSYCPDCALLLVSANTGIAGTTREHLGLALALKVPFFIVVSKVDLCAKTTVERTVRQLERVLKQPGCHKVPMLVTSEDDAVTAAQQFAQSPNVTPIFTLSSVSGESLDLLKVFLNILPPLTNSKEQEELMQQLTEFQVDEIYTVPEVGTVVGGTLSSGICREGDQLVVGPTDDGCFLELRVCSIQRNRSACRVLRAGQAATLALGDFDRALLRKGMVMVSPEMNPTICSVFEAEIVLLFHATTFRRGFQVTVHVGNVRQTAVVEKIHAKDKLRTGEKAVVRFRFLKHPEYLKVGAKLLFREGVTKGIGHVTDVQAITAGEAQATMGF

Compound: CN[C@@H]1C[C@H]2O[C@@](C)([C@@H]1OC)n1c3ccccc3c3c4c(c5c6ccccc6n2c5c31)C(=O)NC4 [staurosporine]
Assay: log2 fold change of tryptic peptide abundance, ligand vs vehicle (limited proteolysis) (log2 ratio); higher = more trypsin-susceptible (destabilized)
Details: ligand concentration: 20 uM; sample: mouse liver crude lysate; replicate design: treated separately

Target	log2 fold change
UniProt Q4JIM5 (peptide sequence: ISADKISK, peptide start residue: 1079)	-0.826
UniProt Q571I9 (peptide sequence: RKPVLTSQLER, peptide start residue: 602)	-0.611
UniProt Q5DTV4 (peptide sequence: RQSDPSIR, peptide start residue: 490)	0.122
UniProt Q3UHD3 (peptide sequence: QELLEKAYR, peptide start residue: 337)	-0.0163
UniProt Q3UHH8 (peptide sequence: GVYHDDKQPAFR, peptide start residue: 332)	-0.215
UniProt Q3UCQ1 (peptide sequence: VKVEPVPAISPATLGAASR, peptide start residue: 517)	0.45
UniProt Q3UFK8 (peptide sequence: IQHLSTIDYVEDGK, peptide start residue: 415)	-0.169
UniProt Q4VAA7 (peptide sequence: FTVISVPHLPEK, peptide start residue: 281)	0.252
UniProt Q3UQU0 (peptide sequence: SIPMRPADEMK, peptide start residue: 463)	0.279
UniProt Q3UJK4 (peptide sequence: EVDYDSDVPR, peptide start residue: 145)	-0.497
UniProt Q3UN02 (peptide sequence: SVIIMNHR, peptide start residue: 79)	0.273

Copied from the entries so far for reference:
Target	log2 fold change
UniProt Q3UJK4 (peptide sequence: EVDYDSDVPR, peptide start residue: 145)	-0.497
UniProt Q3UN02 (peptide sequence: SVIIMNHR, peptide start residue: 79)	0.273
